The source of these data is publication PMC10848004 (Saudi Pharmaceutical Journal : SPJ, 2024).

Molecules are shown by their SMILES.

For assay [1], the system named is human corneal epithelial cell line (HCEC). Kind of assay: Cell viability. In kind it is cell-based. The conditions noted are these: 96 h, read-out: IC50 HCEC.
In the next assay the test system is HT-29 cells. Kind of assay: Cell viability. The settings on record: Homo sapiens, HT-29, 96 h, read-out: IC50 HT-29. In kind it is cell-based.

Turning to `CC(=O)Nc1nnc(S(N)(=O)=O)s1` [AAZ, Acetazolamide], the half-inhibitory concentration (IC50) is 88 µM in assay [1] and above 100 µM with HT-29 cells.
